Source: paper PMC12311110
These are yes or no findings as the source states them, for the method shown. In cells and extracts the contact can be indirect. Here binding means that the protein was enriched with, or labelled near, the bait; the list need not be complete.

How the values were obtained:
BioID1-VPS35L = BioID1-VPS35L (UniProt Q7Z3J2); test: proximity labelling; BioID1-tagged bait in KO HeLa, 24 h biotin, streptavidin isolation, 10-plex TMT nano-LC-MS/MS, 6 repeats, compared with cytosolic BioID1; cut-off log2 FC ≥ 0.8 and p < 0.05
VPS35L-BioID1 = VPS35L-BioID1 (UniProt Q7Z3J2); test: as above

B1: WASH2P (protein, UniProt Q6VEQ5 1-465)
chain: MTPVRMQHSLAGQTYAVPLIQPDLRREEAVQQMADALQYLQKVSGDIFSRISQQVEQSRSQVQAIGEKVSLAQAKIEKIKGSKKAIKVFSSAKYPAPERLQEYGSIFTGAQDPGLQRRPRHRIQSKHRPLDERALQEKLKDFPVCVSTKPEPEDDAEEGLGGLPSNISSVSSLLLFNTTENLYKKYVFLDPLAGAVTKTHVMLGAETEEKLFDAPLSISKREQLEQQVPENYFYVPDLGQVPEIDVPSYLPDLPGIANDLMYIADLGPGIAPSAPGTIPELPTFHTEVAEPLKVDLQDGVLTPPPPPPPPPPAPEVLASAPPLPPSTAAPVGQGARQDDSSSSASPSVQGAPREVVDPSGGRATLLESIRQAGGIGKAKLRSMKERKLEKKKQKEQEQVRATSQGGHLMSDLFNKLVMRRKGISGKGPGAGEGPGGAFARVSDSIPPLPPPQQPQAEEDEDDWES
binding (BioID1-VPS35L): binds
binding (VPS35L-BioID1): binds
